The values below come from article PMC12506269.

Amino acid sequences for entries named in this document (tags omitted).
UniProt P06733: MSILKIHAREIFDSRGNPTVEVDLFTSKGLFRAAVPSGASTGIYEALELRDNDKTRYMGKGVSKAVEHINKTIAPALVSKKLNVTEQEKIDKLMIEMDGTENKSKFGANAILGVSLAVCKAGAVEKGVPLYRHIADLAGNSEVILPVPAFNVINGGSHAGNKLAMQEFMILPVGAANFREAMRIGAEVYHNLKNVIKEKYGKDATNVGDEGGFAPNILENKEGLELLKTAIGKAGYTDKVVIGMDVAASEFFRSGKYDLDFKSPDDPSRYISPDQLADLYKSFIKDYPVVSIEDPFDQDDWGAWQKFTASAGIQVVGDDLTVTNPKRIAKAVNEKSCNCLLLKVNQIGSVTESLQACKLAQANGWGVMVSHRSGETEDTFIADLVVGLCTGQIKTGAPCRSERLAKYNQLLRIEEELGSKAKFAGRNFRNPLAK

Results are given in words; binding and its absence hold for the method and conditions named. Binding seen in cells or lysates may run through a third protein. A yes stands for co-enrichment or nearness to the bait. Other partners may have been found.

The assay deals with T1, SENP1 (Sentrin-specific protease 1), endogenous in gastric cancer cells (human (endogenous in MKN-45 and HGC-27)) (UniProt Q9P0U3).
T1 sequence: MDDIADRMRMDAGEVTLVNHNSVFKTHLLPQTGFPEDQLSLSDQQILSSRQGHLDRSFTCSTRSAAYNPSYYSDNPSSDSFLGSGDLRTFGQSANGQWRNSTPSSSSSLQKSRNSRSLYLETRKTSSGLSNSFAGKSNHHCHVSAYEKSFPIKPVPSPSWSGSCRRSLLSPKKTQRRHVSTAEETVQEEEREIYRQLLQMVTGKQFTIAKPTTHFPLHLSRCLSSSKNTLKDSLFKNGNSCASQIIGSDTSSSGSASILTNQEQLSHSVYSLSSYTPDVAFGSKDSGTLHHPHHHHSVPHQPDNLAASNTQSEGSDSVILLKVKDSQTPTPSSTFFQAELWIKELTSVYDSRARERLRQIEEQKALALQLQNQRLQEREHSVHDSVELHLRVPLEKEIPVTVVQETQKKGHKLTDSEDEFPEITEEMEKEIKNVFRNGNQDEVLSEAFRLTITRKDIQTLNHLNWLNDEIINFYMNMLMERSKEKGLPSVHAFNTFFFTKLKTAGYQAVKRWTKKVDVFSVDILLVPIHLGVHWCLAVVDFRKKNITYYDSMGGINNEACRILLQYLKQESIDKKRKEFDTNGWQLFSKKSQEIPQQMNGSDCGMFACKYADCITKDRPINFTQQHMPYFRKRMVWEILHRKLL
In words: affinity purification with mass spectrometry; co-immunoprecipitation of SENP1, SDS-PAGE, silver staining, mass spectrometry of the gel; cells not given.

In the case of “α-enolase (ENO1), endogenous in gastric cancer cells (from UniProt P06733 1-434) (enzyme)”, the binding result is “binds”.
